Assay results reported in PMC9340482.
Results are given in words; binding and its absence hold for the method and conditions named. Binding seen in cells or lysates may run through a third protein. Some binding calls cover weakened binding; strength is not graded here. Sequences can lack the tags named with a protein. Blank lines part the entries; values can stand above or below the binder they belong to.

How the values were obtained:
[1] = target: T1, Mad1‐GFP (Mad1 fused to ymEGFP), expressed in S. pombe (S. pombe) (UniProt P87169); test: co-IP; anti-GFP antibodies covalently coupled to Protein G Dynabeads; extracts of S. pombe cells expressing two forms of Mad1 (haploid: Mad1-GFP and untagged Mad1; diploid: Mad1-GFP and Mad1-Strep); 10 min at 4°C; lysis buffer 20 mM Tris pH 7.5, 150 mM NaCl, 5% glycerol, 0.1% NP-40; blot with anti-Mad1
T1 sequence: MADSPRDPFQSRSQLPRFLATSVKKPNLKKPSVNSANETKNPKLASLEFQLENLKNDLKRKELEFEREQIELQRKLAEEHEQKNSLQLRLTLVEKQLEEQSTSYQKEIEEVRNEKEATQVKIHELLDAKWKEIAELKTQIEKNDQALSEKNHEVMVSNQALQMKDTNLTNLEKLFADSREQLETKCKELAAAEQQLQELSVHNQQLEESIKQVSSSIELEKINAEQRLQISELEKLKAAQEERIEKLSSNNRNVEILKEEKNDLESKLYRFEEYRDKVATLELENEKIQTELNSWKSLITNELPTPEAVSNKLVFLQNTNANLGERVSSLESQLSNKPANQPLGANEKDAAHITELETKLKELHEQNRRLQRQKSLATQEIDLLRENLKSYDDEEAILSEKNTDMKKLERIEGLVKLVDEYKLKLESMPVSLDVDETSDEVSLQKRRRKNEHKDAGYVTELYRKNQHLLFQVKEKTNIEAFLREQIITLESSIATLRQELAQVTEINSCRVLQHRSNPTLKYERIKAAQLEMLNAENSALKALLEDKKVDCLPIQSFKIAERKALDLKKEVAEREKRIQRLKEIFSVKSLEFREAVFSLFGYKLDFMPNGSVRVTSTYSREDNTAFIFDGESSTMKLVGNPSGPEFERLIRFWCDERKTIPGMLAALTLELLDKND

[2] = target: T2, Mad1‐flag‐His, in vitro translated (S. pombe) (UniProt P87169); test: pull-down; His pull-down with Ni-NTA Dynabeads after co-translation of two forms of Mad1 in rabbit reticulocyte lysate with 35S label; 50 mM sodium-phosphate pH 8.0, 300 mM NaCl, 0.01% Tween-20; washes with 10-20 mM imidazole and 0.1% NP-40; autoradiograph
T2 sequence (chain, 35S-labeled Methionine and Cysteine): T1 sequence

[3] = target: T3, Mad1‐GFP, in vitro translated (S. pombe) (UniProt P87169); test: co-IP; anti-GFP immunoprecipitation after co-translation of two forms of Mad1 in rabbit reticulocyte lysate with 35S label; 20 mM Tris pH 7.5, 150 mM NaCl, 0.1% NP-40; autoradiograph
T3 sequence (chain, 35S-labeled Methionine and Cysteine): T1 sequence

[4] = target: T4, Mad1‐Strep, expressed in S. pombe (S. pombe) (UniProt P87169); test: pull-down; Strep pull-down with MagStrep type3 XT beads from extracts of diploid S. pombe cells expressing Mad1-GFP and Mad1-Strep; 45 min to 1 h at 4°C; washed with lysis buffer or 300 mM NaCl, 1% NP-40 wash buffer; blot with anti-Mad1
T4 sequence: T1 sequence

B2: Mad1‐GFP, in vitro translated (protein, UniProt P87169 1-676)
chain: T1 sequence
modifications: 35S-labeled Methionine and Cysteine
- binding [2]: binds weakly

B3: untagged Mad1, in vitro translated (protein, UniProt P87169 1-676)
chain: T1 sequence
modifications: 35S-labeled Methionine and Cysteine
- binding [2]: binds weakly

B5: Mad1‐GFP (Mad1 fused to ymEGFP), expressed in S. pombe (protein, UniProt P87169 1-676)
chain: T1 sequence
- binding [4]: binds weakly

Other lines, results leading:

- binding [1]: binds weakly
B1: Mad1‐Strep, expressed in S. pombe (protein, UniProt P87169 1-676)
chain: T1 sequence

- binding [3]: binds weakly
B4: Mad1‐flag‐His, in vitro translated (protein, UniProt P87169 1-676)
chain: T1 sequence
modifications: 35S-labeled Methionine and Cysteine
